Data on 61 molecules can be found in PubChem BioAssay AID2685 (National Center for Advancing Translational Sciences (NCATS), 2010).

The experiment in a line: qHTS Assay for Lipid Storage Modulators in Drosophila S3 Cells.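 On cell number change: cells counted by Cell Tracker Red CMTPX staining in the red channel.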 The note with it: BODIPY lipid droplet fluorescence, 18-24 h; for cell number change: measured here: cell count max response, cells fed with added oleic acid. In short, it runs like this: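 Laser-scanning cytometry quantifies lipid droplet accumulation (500–530 nm total intensity; droplet/cell object ratio) in oleic acid-fed (400 uM added) Drosophila S3 cells treated with a concentration series. 20 uM Triacsin C defined 100% inhibition.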
In general terms: In qHTS, concentration-response curves come from the screen itself.

The mark [1] stands for this setting: measured here: lipid fluorescence (Fed channel) AC50, cells fed with added oleic acid.
Setting [2] is: measured here: cell number channel AC50, cells fed with added oleic acid.

The other results are listed elsewhere or left out. Shown are side measurements of this screen, not its main read-out; they come without a call. Compounds called inactive in the main read-out are mostly missing here. Words in brackets tell the shape of the fitted curve; partial curves, single points and poor fits give uncertain potencies.

Take `COc1ccc(NC(=O)C2CCN(c3ncnc4c3nc3n4CCCCC3)CC2)c(OC)c1`: the cell number change worked out at 31.3%.
Usually AC50 stands for the concentration at which the activity in the assay is half-maximal. High values mean weaker potency, low ones greater potency. Turning to `Cc1ccc(CNC(=O)C2(S(=O)(=O)c3ccc(C)cc3)CC2)cc1`, the cell number change was found to be 4.76%. In addition, the concentration at half-maximal activity (AC50) under setting [1] was 6.51 µM [falling, single point].
Consider `CCSc1nnc(NC(=O)C2CC=CCC2C(=O)O)s1` (centres undefined), for which the cell number change is 1.55%. Under setting [1], the AC50 is 16.4 µM [falling, single point].
As for `CCn1c(SCc2nc3ccccc3s2)nnc1-c1ccccc1`, the cell number change amounted to 82%. Besides, the AC50 under setting [2] was 11.6 µM [rising, partial curve]. For the same molecule, the AC50 under setting [1] was 6.51 µM [rising, partial curve].
Regarding `Cc1ccc(NC(=O)C2CCCN(C(=O)c3ccc(Cl)cc3)C2)cc1` (centres undefined), the cell number change was 4.69%.
Turning to `O=C(Nc1cc(Cl)cc(Cl)c1)Nc1cnccn1`, the cell number change was -2.64%. Further, under setting [2], the half-maximal activity concentration (AC50) is 0.206 µM [rising, full curve, poor fit]. Moreover, under setting [1], the AC50 is 6.51 µM [falling, single point].
Consider `CC(=O)N1N=C(c2ccc3ccccc3c2)OC12CCCC2`, for which the cell number change was -1.32%. Under setting [2], the AC50 is 6.51 µM [falling, single point]. The AC50 under setting [1] is 6.51 µM [falling, single point].
Consider `COc1ccc(Cn2c(C3CC3)nc3ccc(NC(C)=O)cc3c2=O)cc1`, for which the cell number change was -24.5%. Moreover, the AC50 under setting [1] is 0.461 µM [rising, partial curve, poor fit].
For the molecule `CCOC(=O)C1CCN(S(=O)(=O)c2ccc(OC)c(C(=O)N3CCCCC3)c2)CC1`, the cell number change is 12.5%.
With `N#Cc1c(NC(=S)NC(=O)c2ccccc2)sc2c1CCCC2`, the cell number change was found to be 11.9%. In addition, under setting [1], the AC50 was 0.116 µM [rising, full curve, poor fit].
As to `COc1cc(C2SCC(=O)N2c2c(C)n(C)n(-c3ccccc3)c2=O)ccc1O` (centres undefined), the cell number change came out at 5.96%.
As to `COc1ccc(-n2nc3c(c2NC(=O)C(C)Cl)CSC3)cc1` (centres undefined), the cell number change was determined as 7.95%. Besides, under setting [1], the AC50 is 16.4 µM [rising, single point].
As to `CCCCN(C(=O)CSc1nncn1-c1ccccc1OC)c1c(N)n(Cc2ccccc2)c(=O)[nH]c1=O`, the cell number change was found to be 2.87%.
For `COC(=O)c1sc(NC(=S)NNC(=O)c2c(Br)c(C)nn2C)c(C(=O)OC)c1C`, the cell number change is -45.5%. Moreover, under setting [2], the half-maximal activity concentration (AC50) is 20.6 µM [falling, single point].
Regarding `CS(=O)(=O)NCCSCc1ccccc1`, the cell number change is -14.9%. The concentration at half-maximal activity (AC50) under setting [1] was 0.0164 µM [falling, full curve, poor fit].
For `O=C(Cn1c(-c2cscn2)nc2ccccc21)Nc1ccc2ccccc2c1`, the cell number change was -23.8%.
On the same count and under the same terms, to `CN(CC(=O)Nc1ccccc1Br)C(=O)c1ccc(-c2ccc(Cl)cc2)o1` belongs -13.5%.
Turning to `CCOC(=O)C1CCN(C(=O)COC(=O)c2oc3ccc(OC)cc3c2C)CC1`, the cell number change was -1.91%. Under setting [1], the concentration at half-maximal activity (AC50) is 3.66 µM [falling, full curve].
On to `COc1ccc(Cl)cc1NC(=O)NCC1CCN(C(=O)OC(C)(C)C)CC1`, for which the cell number change is -52.6%. In addition, the AC50 under setting [2] was 5.17 µM [falling, full curve]. Moreover, the half-maximal activity concentration (AC50) under setting [1] is 3.26 µM [falling, full curve].
Take `COc1ccc(S(=O)(=O)n2oc(=O)cc2-c2ccccc2)cc1OC`: the cell number change came to 15.1%. Besides, the AC50 under setting [1] was 20.6 µM [rising, single point].
Take `NC(=O)C1CCN(C(=O)COc2ccc3c(c2)oc(=O)c2ccccc23)CC1`: the cell number change was -3.88%.
Regarding `CCn1c(SC(C)C(=O)Nc2ccc(N3CCOCC3)cc2)nnc1C1CC1` (centres undefined), the cell number change turned out to be 2.2%. Moreover, the AC50 under setting [1] was 0.291 µM [falling, full curve, poor fit].
For `COc1cc(C(=O)NCCC(=O)NCCCN2CCCCC2C)cc(OC)c1OC` (centres undefined), the cell number change is -2.44%. Further, the AC50 under setting [1] is 0.58 µM [falling, single point].
Consider `COc1ccc(NC(=O)c2cc(S(=O)(=O)N3CCCC3)ccc2C)cn1`, for which the cell number change is -9.86%. The AC50 under setting [1] was 0.0651 µM [falling, full curve, poor fit].
With `COC(=O)c1c(NC(=O)CN2CCN(c3ccccc3OC)CC2)c2cc(C)ccc2n1C`, the cell number change was found to be 17%. For the same molecule, the AC50 under setting [1] is 6.51 µM [rising, single point].
With `COc1ccc(NC(=O)CNC(=O)CC23CC4CC(CC(C4)C2)C3)c(OC)c1`, the cell number change was determined as 23.3%.
Consider `CC1(C)CC(=O)C(N=Nc2ccc(Br)cc2)=C(O)C1`, for which the cell number change worked out at 7.02%. Besides, the AC50 under setting [2] is 0.00461 µM [rising, full curve, poor fit].
On to `Cc1ccc(OC(C)c2nnc(N)s2)cc1Cl` (centres undefined), for which the cell number change stood at 161%. Under setting [2], the AC50 was 20.6 µM [rising, partial curve]. Under setting [1], the half-maximal activity concentration (AC50) is 20.6 µM [rising, partial curve].
For `Cc1ccsc1C(=O)OCC(=O)NC1CCCCC1C` (centres undefined), the cell number change is -25.7%. The half-maximal activity concentration (AC50) under setting [2] was 0.82 µM [falling, full curve, poor fit]. In addition, the AC50 under setting [1] was 29.1 µM [falling, single point].
Take `O=C(COc1cc(=O)n2c(n1)SCCC2)c1ccccc1`: the cell number change was 23.1%. Also, under setting [1], the AC50 is 10.3 µM [rising, partial curve].
As to `CCOC(=O)c1c(C)[nH]c(C)c1C(=O)COC(=O)c1c(OC)cccc1OC`, the cell number change came to 2.01%.
Turning to `CCOc1cc(CNc2ccc(N(C)C)cc2)cc(Br)c1OCC(=O)NC(C)(C)C`, the cell number change is -49.7%. The concentration at half-maximal activity (AC50) under setting [2] was 29.1 µM [falling, single point]. Also, the AC50 under setting [1] is 20.6 µM [falling, single point].
As for `CC(=O)N=c1cccc(NC(C)=O)n1O`, the cell number change is -25.4%. Also, the AC50 under setting [2] is 0.231 µM [falling, full curve, poor fit]. Further, the AC50 under setting [1] was 1.03 µM [falling, full curve].
With `Cc1ccc(OCC(O)CNC2CCCC2)cc1C` (centres undefined), the cell number change was 32%. In addition, the AC50 under setting [2] is 32.6 µM [rising, single point]. For the same molecule, under setting [1], the AC50 is 16.4 µM [rising, single point].
On to `O=C1CC(C(=O)Nc2ccc(F)c(Cl)c2)N=C(N2CCCCC2)N1` (centres undefined), for which the AC50 under setting [1] is 4.11 µM [falling, single point].
Turning to `CC(=O)c1c(C)n(CCO)c2ccc(O)cc12`, the AC50 under setting [2] was 1.46 µM [rising, full curve, poor fit].
For the molecule `COc1cccc(C(=O)N(Cc2ccco2)c2c(N)n(Cc3ccccc3)c(=O)[nH]c2=O)c1`, the cell number change came to 0.803%.
Regarding `CCOC(=O)C1=NN(C(C)=O)C2(CC(=O)N(c3cccc(C)c3)C2=O)C1` (centres undefined), the cell number change was -12.7%. Besides, under setting [1], the AC50 is 4.11 µM [falling, full curve, poor fit].
With `C[C@@H](OC(=O)N1CCCCC1)[C@H]1O[C@]2(C)CCCC[C@H]1O2`, the cell number change turned out to be 11%. Moreover, under setting [1], the AC50 was 1.16 µM [rising, full curve].
For `CCc1cccc(OCC(O)Cn2c(N3CCCCC3)nc3c2c(=O)[nH]c(=O)n3C)c1` (centres undefined), the cell number change was -24.5%. Further, the AC50 under setting [1] was 4.61 µM [falling, single point].
Consider `CCCCc1ccc(NC(=O)CC(C)C)cc1`, for which the cell number change is -2.17%. Also, under setting [1], the AC50 is 0.184 µM [falling, full curve, poor fit].
As for `O=C(Cn1ncc(Cl)c(Cl)c1=O)NC1CCCCC1`, the cell number change is -0.934%. Also, under setting [1], the AC50 is 0.651 µM [falling, single point].
On to `CCOC(=O)c1ccccc1NC(=O)COC(=O)CCC(=O)N1CCOCC1`, for which the cell number change is -2.97%. The AC50 under setting [2] was 0.82 µM [rising, full curve, poor fit].
Regarding `CSc1nsc(/C=C/Nc2ccc(Cl)cc2)c1C#N`, the cell number change is -0.648%. In addition, under setting [1], the AC50 was 18.4 µM [falling, single point].
On to `CCOC(=O)c1sc(NC(=O)CSc2n[nH]c(CC(C)C)n2)nc1C`, for which the cell number change is -72.1%. Also, under setting [2], the AC50 is 23.1 µM [falling, single point]. For the same molecule, the AC50 under setting [1] was 16.4 µM [falling, partial curve].
As for `Cc1cccc(N2CCN(C(=O)Cn3cccc3)CC2)c1C`, the cell number change is 32.4%. The AC50 under setting [2] was 29.1 µM [rising, single point]. Also, under setting [1], the AC50 is 0.146 µM [rising, full curve].
As for `CCOC(=O)C1(Cc2cccc(OC)c2)CCN(Cc2ccccc2)CC1`, the cell number change was -18.9%. Further, the half-maximal activity concentration (AC50) under setting [1] was 29.1 µM [falling, single point].
For `Cc1ccc(N2C(=O)C3C4C=CC(CNC(=S)Nc5ccc(Cl)cc5)(O4)C3C2=O)cc1` (centres undefined), the cell number change was determined as 30.9%. Under setting [2], the AC50 was 29.1 µM [rising, single point]. Besides, the AC50 under setting [1] is 0.651 µM [rising, single point].
As for `CCOC(=O)NC(=O)/C(C=Nc1ccc(Cl)cc1)=C(\C)O`, the cell number change is -12.9%. The half-maximal activity concentration (AC50) under setting [1] is 0.58 µM [falling, single point].
Consider `O=c1c2ccccc2nnn1Cc1cccc2ccccc12`, for which the cell number change is 3.82%. For the same molecule, under setting [1], the AC50 is 1.64 µM [falling, partial curve].
In the case of `CC(C(=O)O)n1cnc2sc3c(c2c1=O)CCCC3` (centres undefined), the cell number change was -16.7%. Also, the AC50 under setting [1] is 0.651 µM [falling, single point].
For `Cc1ccc(-c2cc(C(F)F)n3ncc(C(=O)NN4CCCCC4)c3n2)cc1`, the cell number change is -19.3%.
Consider `O=C(Cc1sc(-c2ccccc2)nc1-c1ccccc1)Nc1ccccc1`, for which the cell number change stood at 16%. In addition, the AC50 under setting [1] was 2.06 µM [rising, partial curve].
On to `Cn1c(SCC(=O)N2CCCC2)nnc1-c1cnccn1`, for which the AC50 under setting [2] was 3.66 µM [rising, partial curve, poor fit] and the AC50 under setting [1] was 0.517 µM [rising, partial curve, poor fit].
Turning to `CCNS(=O)(=O)c1ccc(NC(=O)Nc2cc(C)ccc2OC)cc1`, the cell number change is -21.6%. In addition, the AC50 under setting [1] is 1.84 µM [falling, partial curve].
For the molecule `CCOc1cc(NC(=S)NCC2CCCO2)c(OCC)cc1NC(=O)c1ccccc1F` (centres undefined), the cell number change stood at 15.8%. Besides, under setting [1], the concentration at half-maximal activity (AC50) is 0.00517 µM [falling, full curve, poor fit].
For the molecule `Cc1ccccc1Oc1cc(NC(=O)Cn2cnc([N+](=O)[O-])c2)cc([N+](=O)[O-])c1`, the cell number change was found to be 0.24%. Further, the concentration at half-maximal activity (AC50) under setting [1] is 0.00461 µM [falling, full curve, poor fit].
In the case of `COc1ccc(-n2nnnc2-c2cccnc2)cc1`, the cell number change was -4.33%.
In the case of `CC(=O)c1cccc(NC(=O)CN2C(=O)NC(C)(c3ccc4c(c3)OCCCO4)C2=O)c1` (centres undefined), the cell number change was 13.9%. Also, the AC50 under setting [1] was 29.1 µM [rising, single point].
Regarding `O=C(Nc1nc(-c2cc(Cl)sc2Cl)cs1)c1ccccc1`, the cell number change amounted to 18.8%. Further, under setting [1], the AC50 was 0.58 µM [rising, single point].
As to `CCc1cc(=O)oc2cc(C)cc(OCC(=O)NC(Cc3c[nH]c4ccc(O)cc34)C(=O)O)c12` (centres undefined), the cell number change stood at 22%. Under setting [1], the AC50 was 0.58 µM [rising, single point].
